Publication PMC12126495
No constants are given. Whether binding was seen depends on the method and setting. In cells and extracts the contact can be indirect. A yes stands for co-enrichment or nearness to the bait. Other partners may have been found.

Chains of the proteins cited; added tags and fusions are not shown.
UniProt Q3TKT4: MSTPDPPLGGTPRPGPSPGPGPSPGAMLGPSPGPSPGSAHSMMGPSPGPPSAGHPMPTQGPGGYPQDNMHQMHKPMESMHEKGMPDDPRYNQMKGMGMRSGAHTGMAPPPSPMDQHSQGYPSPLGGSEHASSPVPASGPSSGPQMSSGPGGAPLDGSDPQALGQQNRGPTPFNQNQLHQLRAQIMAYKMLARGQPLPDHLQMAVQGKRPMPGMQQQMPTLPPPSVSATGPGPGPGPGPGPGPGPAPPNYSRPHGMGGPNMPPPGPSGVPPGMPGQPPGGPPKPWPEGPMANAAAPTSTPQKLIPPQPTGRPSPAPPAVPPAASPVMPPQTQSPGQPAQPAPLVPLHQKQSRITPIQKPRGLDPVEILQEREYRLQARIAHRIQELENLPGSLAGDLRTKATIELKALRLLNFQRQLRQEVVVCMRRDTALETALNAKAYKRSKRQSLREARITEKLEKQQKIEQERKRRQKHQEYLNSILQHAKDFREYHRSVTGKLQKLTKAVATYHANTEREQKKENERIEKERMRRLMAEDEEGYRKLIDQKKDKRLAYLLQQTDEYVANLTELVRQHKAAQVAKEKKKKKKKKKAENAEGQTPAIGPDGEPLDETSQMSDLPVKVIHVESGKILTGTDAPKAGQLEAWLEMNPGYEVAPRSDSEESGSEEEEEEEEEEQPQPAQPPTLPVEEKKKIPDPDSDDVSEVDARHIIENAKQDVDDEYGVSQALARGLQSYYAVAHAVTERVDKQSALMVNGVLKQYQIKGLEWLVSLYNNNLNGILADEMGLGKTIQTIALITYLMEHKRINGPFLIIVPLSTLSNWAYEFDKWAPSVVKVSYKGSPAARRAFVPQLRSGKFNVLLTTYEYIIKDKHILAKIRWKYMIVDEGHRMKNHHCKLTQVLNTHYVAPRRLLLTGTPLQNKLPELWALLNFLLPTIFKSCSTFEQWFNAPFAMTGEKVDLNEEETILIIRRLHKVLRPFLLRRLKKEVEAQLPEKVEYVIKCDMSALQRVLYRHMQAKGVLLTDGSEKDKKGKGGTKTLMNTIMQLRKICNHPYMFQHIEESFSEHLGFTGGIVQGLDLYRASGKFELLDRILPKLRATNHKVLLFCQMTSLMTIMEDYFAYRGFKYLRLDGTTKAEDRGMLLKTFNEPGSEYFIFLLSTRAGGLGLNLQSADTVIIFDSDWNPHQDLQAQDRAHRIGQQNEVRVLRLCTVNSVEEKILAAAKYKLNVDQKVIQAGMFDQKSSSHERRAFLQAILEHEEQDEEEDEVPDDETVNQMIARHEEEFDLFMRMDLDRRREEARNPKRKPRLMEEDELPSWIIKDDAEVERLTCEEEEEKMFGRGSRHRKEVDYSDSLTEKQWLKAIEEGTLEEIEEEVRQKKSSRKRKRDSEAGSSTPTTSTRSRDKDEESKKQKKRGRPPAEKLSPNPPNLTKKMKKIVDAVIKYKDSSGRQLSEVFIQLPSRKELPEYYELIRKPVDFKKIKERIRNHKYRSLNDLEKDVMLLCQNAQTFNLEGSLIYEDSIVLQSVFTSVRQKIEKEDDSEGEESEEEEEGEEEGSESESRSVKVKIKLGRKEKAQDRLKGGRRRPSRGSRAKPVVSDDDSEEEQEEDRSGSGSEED
UniProt Q6PDQ2: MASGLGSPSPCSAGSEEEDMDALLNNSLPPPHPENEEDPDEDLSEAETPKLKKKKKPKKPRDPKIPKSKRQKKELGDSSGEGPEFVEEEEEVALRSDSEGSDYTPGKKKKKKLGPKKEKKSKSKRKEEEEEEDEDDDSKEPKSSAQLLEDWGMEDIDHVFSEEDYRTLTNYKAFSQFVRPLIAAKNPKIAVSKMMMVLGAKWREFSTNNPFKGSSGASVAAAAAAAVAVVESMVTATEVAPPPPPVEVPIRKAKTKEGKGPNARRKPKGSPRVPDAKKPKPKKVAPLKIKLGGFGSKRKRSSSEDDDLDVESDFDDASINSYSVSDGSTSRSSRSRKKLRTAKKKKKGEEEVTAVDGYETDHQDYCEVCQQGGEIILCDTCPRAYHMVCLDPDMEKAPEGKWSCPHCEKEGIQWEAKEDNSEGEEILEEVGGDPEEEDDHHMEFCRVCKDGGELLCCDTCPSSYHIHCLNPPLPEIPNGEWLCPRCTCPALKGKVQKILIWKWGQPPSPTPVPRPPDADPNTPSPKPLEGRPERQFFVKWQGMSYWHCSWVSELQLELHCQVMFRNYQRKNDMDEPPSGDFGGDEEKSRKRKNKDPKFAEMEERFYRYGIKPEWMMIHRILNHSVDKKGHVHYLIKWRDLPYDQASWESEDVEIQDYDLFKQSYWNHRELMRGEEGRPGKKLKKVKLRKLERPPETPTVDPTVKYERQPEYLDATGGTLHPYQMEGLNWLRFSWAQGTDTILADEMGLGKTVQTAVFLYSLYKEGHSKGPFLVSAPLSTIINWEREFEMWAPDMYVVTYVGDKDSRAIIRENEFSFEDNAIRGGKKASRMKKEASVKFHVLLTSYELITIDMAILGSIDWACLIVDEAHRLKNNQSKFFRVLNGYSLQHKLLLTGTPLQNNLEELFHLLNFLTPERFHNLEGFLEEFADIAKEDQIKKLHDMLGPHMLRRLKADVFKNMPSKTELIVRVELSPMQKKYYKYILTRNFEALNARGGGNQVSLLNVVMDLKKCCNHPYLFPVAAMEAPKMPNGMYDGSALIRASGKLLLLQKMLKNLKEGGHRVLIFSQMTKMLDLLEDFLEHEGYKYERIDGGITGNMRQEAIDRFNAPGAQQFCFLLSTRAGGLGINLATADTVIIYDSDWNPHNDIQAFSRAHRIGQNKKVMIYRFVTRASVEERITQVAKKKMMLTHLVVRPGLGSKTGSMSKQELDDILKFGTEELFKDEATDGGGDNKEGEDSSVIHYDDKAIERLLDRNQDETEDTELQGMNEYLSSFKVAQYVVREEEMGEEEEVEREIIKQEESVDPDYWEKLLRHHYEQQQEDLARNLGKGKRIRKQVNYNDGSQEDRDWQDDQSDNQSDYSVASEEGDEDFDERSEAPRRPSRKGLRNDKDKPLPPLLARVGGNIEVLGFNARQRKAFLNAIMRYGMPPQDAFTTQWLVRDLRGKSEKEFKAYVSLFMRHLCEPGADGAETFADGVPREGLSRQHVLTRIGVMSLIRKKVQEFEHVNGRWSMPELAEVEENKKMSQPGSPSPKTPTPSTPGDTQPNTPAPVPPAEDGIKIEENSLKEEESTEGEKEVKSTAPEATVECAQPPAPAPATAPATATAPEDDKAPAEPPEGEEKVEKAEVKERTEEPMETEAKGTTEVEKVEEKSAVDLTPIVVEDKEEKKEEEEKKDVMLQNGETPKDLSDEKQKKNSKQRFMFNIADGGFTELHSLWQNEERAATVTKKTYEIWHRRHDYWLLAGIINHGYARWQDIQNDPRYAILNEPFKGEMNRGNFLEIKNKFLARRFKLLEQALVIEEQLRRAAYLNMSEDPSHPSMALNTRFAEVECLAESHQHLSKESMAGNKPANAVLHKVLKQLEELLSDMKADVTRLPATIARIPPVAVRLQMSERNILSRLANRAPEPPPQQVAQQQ
UniProt Q9Z0Z7: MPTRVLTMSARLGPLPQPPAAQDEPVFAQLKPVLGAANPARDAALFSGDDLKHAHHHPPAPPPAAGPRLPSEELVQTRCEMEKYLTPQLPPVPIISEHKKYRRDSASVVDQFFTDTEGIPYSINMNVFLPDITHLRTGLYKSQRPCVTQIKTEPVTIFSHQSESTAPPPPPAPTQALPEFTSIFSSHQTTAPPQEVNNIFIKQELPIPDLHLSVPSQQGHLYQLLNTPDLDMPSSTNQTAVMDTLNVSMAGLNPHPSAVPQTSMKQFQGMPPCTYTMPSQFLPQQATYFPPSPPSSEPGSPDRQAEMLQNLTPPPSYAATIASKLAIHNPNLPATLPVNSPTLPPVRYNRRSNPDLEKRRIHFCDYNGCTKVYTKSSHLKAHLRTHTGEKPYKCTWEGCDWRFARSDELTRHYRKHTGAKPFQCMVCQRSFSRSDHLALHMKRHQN
UniProt P97496: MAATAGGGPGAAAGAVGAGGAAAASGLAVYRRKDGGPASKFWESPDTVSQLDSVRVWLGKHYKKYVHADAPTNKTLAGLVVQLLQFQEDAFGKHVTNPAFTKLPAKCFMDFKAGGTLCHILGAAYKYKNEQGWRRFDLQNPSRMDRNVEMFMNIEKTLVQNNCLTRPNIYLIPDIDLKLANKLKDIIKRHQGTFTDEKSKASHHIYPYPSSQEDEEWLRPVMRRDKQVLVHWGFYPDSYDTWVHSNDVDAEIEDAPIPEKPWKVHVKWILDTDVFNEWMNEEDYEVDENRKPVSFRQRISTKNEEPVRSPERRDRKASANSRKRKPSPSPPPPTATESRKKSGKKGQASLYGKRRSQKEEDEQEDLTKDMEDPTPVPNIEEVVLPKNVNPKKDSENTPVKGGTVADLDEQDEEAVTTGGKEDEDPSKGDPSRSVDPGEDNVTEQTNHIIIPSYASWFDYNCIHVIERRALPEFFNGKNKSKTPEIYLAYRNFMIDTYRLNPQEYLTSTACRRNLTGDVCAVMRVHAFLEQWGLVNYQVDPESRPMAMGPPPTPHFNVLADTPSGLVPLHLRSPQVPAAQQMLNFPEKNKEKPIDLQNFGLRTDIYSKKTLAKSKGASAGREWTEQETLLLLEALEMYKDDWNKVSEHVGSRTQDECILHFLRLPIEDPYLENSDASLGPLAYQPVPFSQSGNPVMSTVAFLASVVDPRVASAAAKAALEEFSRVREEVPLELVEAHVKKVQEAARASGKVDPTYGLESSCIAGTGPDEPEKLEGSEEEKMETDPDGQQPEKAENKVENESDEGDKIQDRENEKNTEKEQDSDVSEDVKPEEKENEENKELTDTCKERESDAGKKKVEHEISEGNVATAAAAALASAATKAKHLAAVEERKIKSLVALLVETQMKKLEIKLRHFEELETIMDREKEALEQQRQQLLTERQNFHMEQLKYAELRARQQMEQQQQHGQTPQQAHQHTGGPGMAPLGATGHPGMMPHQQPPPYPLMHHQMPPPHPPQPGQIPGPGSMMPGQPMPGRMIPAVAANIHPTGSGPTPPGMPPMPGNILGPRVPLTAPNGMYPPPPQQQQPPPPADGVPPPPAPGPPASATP
UniProt Q99JR8: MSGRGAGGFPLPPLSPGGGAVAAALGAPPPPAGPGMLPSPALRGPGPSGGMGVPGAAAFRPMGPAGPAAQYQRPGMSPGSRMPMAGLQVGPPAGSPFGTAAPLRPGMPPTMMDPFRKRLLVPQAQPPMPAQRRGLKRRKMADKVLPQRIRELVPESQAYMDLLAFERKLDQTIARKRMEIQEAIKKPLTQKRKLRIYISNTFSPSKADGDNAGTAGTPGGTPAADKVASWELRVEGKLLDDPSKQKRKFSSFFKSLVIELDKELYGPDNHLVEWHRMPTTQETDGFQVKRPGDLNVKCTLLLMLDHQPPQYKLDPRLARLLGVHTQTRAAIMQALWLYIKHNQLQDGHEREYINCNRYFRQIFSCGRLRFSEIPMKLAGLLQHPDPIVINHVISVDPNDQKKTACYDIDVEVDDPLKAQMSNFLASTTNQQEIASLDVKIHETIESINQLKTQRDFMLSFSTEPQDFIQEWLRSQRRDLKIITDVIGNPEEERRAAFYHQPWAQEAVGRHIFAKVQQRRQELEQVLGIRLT
UniProt Q61312: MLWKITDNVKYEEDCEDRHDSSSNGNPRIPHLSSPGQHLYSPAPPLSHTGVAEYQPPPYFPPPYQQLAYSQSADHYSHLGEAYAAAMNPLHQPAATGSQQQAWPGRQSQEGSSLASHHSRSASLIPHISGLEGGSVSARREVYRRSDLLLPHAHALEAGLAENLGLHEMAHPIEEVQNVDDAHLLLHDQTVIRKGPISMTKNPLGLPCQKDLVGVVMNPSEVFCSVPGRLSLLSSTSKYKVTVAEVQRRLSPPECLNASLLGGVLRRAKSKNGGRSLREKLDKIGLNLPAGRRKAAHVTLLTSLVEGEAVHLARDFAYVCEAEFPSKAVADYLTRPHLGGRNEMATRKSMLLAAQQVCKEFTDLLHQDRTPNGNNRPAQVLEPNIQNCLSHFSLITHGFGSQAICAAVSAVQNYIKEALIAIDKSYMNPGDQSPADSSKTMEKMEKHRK

T1: Eomesodermin/Tbr2 (Eomes) (mouse (endogenous in TSCs)) (UniProt O54839)
T1 sequence: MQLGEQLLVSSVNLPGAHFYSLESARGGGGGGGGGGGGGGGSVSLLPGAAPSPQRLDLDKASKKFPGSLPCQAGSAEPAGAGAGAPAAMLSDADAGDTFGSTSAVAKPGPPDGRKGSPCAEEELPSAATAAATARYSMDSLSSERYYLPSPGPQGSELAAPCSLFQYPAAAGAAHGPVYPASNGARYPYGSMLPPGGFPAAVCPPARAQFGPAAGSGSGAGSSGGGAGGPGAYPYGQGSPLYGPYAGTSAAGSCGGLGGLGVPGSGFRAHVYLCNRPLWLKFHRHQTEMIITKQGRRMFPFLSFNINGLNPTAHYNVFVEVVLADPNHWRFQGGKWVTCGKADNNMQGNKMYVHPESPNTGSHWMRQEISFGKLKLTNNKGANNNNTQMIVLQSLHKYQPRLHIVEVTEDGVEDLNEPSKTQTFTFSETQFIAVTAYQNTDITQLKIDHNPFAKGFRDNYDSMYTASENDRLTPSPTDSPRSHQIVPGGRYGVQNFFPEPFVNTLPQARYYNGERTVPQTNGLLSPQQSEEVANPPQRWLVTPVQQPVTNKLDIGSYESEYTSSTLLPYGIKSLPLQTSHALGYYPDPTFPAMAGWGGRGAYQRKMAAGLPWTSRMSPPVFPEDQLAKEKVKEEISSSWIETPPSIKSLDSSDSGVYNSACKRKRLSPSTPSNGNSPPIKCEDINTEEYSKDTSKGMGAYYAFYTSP

T2: Eomesodermin/Tbr2 (Eomes) (mouse (endogenous in TSCs)), O54839
T2 chain: T1 sequence

B1: Zfp281 (protein, UniProt Q99LI5 1-893)
chain: MKIGSGFLSGGGGPSSSGGSGSGGSSGSASGGSGGGRRAEMEPTFPQSMVMFNHRLPPVTSFTRPAGTAAPPPQCVLSSSTSAAPAAEPPPPPAPDMTFKKEPAASAAAFPSQRTSWGFLQSLVSIKQEKPADPEEQPSHHHHHHHHYGGLFAGAEERSPGLGGGEGGSHGVIQDLSLLHQHAQQQPAQHHRDVLLSSGSRTDEHGNQEPKQDANVKKAKRPKPESQGIKAKRKPSASSKPLVGEGEGAVLSPSQKPHICDHCSAAFRSSYHLRRHVLIHTGERPFQCSQCSMGFIQKYLLQRHEKIHSREKPFGCDQCSMKFIQKYHMERHKRTHSGEKPYKCDTCQQYFSRTDRLLKHRRTCGEAIAKGAASAEPGSSNHNSMGNLAVLSQGNTSSSRRKSKSKSIAIENKEHKTGKTNESQMSNNINMQSYSVEMPTVSTSGSIIGTGIDELQKRVPKLIFKKGSRKNADKSYLNFVSPLPDVVGQKSLSGKPGGSLGIVSNNSVETISLLQSTSGKQGPISSNYDDAMQFSKKRRYLPTASSNSAFSINVGHMVSQQSVIQSAGVSVLDNEAPLSLIDSSALNAEIKSCHDKSGIPDEVLQSILDQYSGKSETQKEDPFNLTEPRVDLHTSGEHSELVQEENLSPGTQTPSNDKTSMLQEYSKYLQQAFEKSTNAGFTLGHGFQFVSLSSPLHNHTLFPEKQIYTTSPLECGFGQSVTSVLPSSLPKPPFGMLFGSQPGLYLSALDATHQQLTPSQELDDLIDSQKNLETSSAFQSSSQKLTSQKEQQKNLESSTSFQIPSQELASQIDPQKDIEPRTTYQIENFAQAFGSQFKSGSRVPMTFITNSNGEVDHRVRTSVSDFSGYTNMMSDVSEPCSTRVKTPTSQSYR
B2: Pou3f1 (Oct6) (protein, UniProt P21952 1-449)
chain: MATTAQYLPRGPGGGAGGTGPLMHPDAAAAAAAAAERLHAGAAYREVQKLMHHEWLGAGAGHPVGLAHPQWLPTGGGGGGDWAGGPHLEHGKAGGGGTGRADDGGGGGGFHARLVHQGAAHAGAAWAQGGTAHHLGPAMSPSPGAGGGHQPQPLGLYAQAAYPGGGGGGLAGMLAAGGGGAGPGLHHALHEDGHEAQLEPSPPPHLGAHGHAHGHAHAGGLHAAAAHLHPGAGGGGSSVGEHSDEDAPSSDDLEQFAKQFKQRRIKLGFTQADVGLALGTLYGNVFSQTTICRFEALQLSFKNMCKLKPLLNKWLEETDSSSGSPTNLDKIAAQGRKRKKRTSIEVGVKGALESHFLKCPKPSAHEITGLADSLQLEKEVVRVWFCNRRQKEKRMTPAAGAGHPPMDDVYAPGELGPGGGSASPPSAPPPPPPAALHHHHHHTLPGSVQ
B3: Smarcd1, Q61466 1-515 (protein)
chain: MAARAGFQSVAPSGGAGASGGAGVAAALGPGGTPGPPVRMGPAPGQGLYRSPMPGAAYPRPGMLPGSRMTPQGPSMGPPGYGGNPSVRPGLAQSGMDQSRKRPAPQQIQQVQQQAVQNRNHNAKKKKMADKILPQRIRELVPESQAYMDLLAFERKLDQTIMRKRLDIQEALKRPIKQKRKLRIFISNTFNPAKSDAEDGEGTVASWELRVEGRLLEDAALSKYDATKQKRKFSSFFKSLVIELDKDLYGPDNHLVEWHRTATTQETDGFQVKRPGDVNVRCTVLLMLDYQPPQFKLDPRLARLLGIHTQTRPVIIQALWQYIKTHKLQDPHEREFVLCDKYLQQIFESQRMKFSEIPQRLHALLMPPEPIIINHVISVDPNDQKKTACYDIDVEVDDTLKTQMNSFLLSTASQQEIATLDNKIHETIETINQLKTQREFMLSFARDPQGFINDWLQSQCRDLKTMTDVVGNPEEERRAEFYFQPWAQEAVCRYFYSKVQQRRQELEQALGIRNT

Each molecule was assayed against T1, Eomesodermin/Tbr2 (Eomes) (mouse (endogenous in TSCs)) (assay: affinity purification with mass spectrometry; RIME: wild-type TSCs fixed with 1% formaldehyde for 8 min at RT; 150 μg of pre-cleared chromatin immunoprecipitated with 15 μg of Eomes antibody (Abcam, ab23345) or rabbit IgG control; LC-MS/MS; 4 Eomes RIMEs alongside 2 IgG control RIMEs). Conditions: not given.

**Q.** Arid1a (from UniProt A2BH40 1-2283) was tested. Which binding did it give?
**A.** Its binding is “binds”.

**Q.** “Brg1 (Smarca4) (from UniProt Q3TKT4 1-1613)” was tested. Which binding did it give?
**A.** The binding was “binds”.

**Q.** With Chd4 (from UniProt Q6PDQ2 1-1915) as the molecule, how does the binding read?
**A.** Its binding is “binds”.

**Q.** How did the binding turn out when Klf5 (from UniProt Q9Z0Z7 1-446) was run?
**A.** Its binding is “binds”.

**Q.** Which binding does the source give for Smarcc1 (from UniProt P97496 1-1104) here?
**A.** The binding was “binds”.

**Q.** How did the binding turn out when Smarcd2 (from UniProt Q99JR8 1-531) was run?
**A.** The binding was “binds”.

**Q.** Which binding does the source give for “Tfap2c (Ap2γ) (from UniProt Q61312 1-449)” here?
**A.** The binding was “binds”.

**Q.** How did the binding turn out when B1 was run?
**A.** The binding was “binds”.

**Q.** How did the binding turn out when B2 was run?
**A.** Its binding is “binds”.

Target: T2, Eomesodermin/Tbr2 (Eomes) (mouse …)
Assay: as above
Conditions: remark: other sources report otherwise

**Q.** For B3, which binding is on record?
**A.** Its binding is “binds”.
